Results from one PubChem assay

From PubChem BioAssay record AID1347106 (NCATS, 2019).

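Wild-type Hh fibroblast control cells treated with compounds for 48 h, with viability read as CellTiter-Glo luminescence and fitted into a concentration-response curve. Each compound was tested as a dilution series reaching a top concentration of about 46 µM. The number is the fitted half-maximal potency for cytotoxicity; a lower value means a more potent cell-killing compound. Calls come from curve class and a score: actives score 40 to 100 and inconclusives 1 to 39, so weak, poorly fitted or single-point curves are inconclusive.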

Values are in nM. All entries here are filed as inconclusive. These entries are mostly ones the record files as inconclusive; other results of the assay are not listed here. Potencies fitted to partial, single-point or poorly fitting curves are rough. Some entries filed as inconclusive have a full curve. Activity scores are not listed here.

Compound | potency (nM) | remark
COc1ccc(C(=O)CC(=O)c2ccc(C(C)(C)C)cc2)cc1 | 5899 | cytotoxic, partial curve
CCN1CCN(c2cc3c(cc2F)c(=O)c(C(=O)O)cn3C2CC2)CC1 | 2661 | cytotoxic, partial curve
COc1cc(N2CCC(C(N)=O)CC2)ccc1Nc1nc(N)c(Cl)c(Nc2ccccc2S(=O)(=O)C(C)C)n1 | 1177 | cytotoxic, full curve
CCC(C)(C)C(=O)O[C@H]1C[C@@H](C)C=C2C=C[C@H](C)[C@H](CC[C@@H]3C[C@@H](O)CC(=O)O3)[C@H]21 | 9350 | cytotoxic, partial curve
Cc1cn2c(-c3cn[nH]c3)cnc2c(Nc2ccc(C(=O)N3CCNCC3)cc2F)n1 | 2957 | cytotoxic, full curve
CNS(=O)(=O)CCc1ccc2[nH]cc(C3CCN(C)CC3)c2c1 | 2986 | cytotoxic, partial curve, poor fit
CCCc1nc(C)c2c(=O)[nH]c(-c3cc(S(=O)(=O)N4CCN(CC)CC4)ccc3OCC)nn12 | 37221 | cytotoxic, single point
O=c1cc(CN2CCOCC2)occ1OCCCCCSc1ccnc2cc(C(F)(F)F)ccc12 | 37221 | cytotoxic, single point
CC(C)CN(C[C@H](O)[C@H](Cc1ccccc1)NC(=O)O[C@H]1CCOC1)S(=O)(=O)c1ccc(N)cc1 | 14817 | cytotoxic, partial curve, poor fit
CN1CC[C@@H](c2c(O)cc(O)c3c(=O)cc(-c4ccccc4Cl)oc23)[C@@H](O)C1 | 148.2 | cytotoxic, full curve
Nc1ncnc2c1ncn2[C@@H]1O[C@H](CO)C[C@@H]1O | 37221 | cytotoxic, partial curve, poor fit
OCCCNc1cc(-c2ccnc(Nc3cccc(Cl)c3)n2)ccn1 | 148.2 | cytotoxic, full curve, poor fit
CS(=O)(=O)c1ccc(-c2cn3ccccc3n2)cc1 | 26608 | cytotoxic, partial curve, poor fit
O=C(c1cc(Cc2n[nH]c(=O)c3ccccc23)ccc1F)N1CCN(C(=O)C2CC2)CC1 | 16626 | cytotoxic, partial curve
C[n+]1cc2c3c(ccc2c2ccc4cc5c(cc4c21)OCO5)OCO3 | 92 | cytotoxic, full curve, poor fit
COc1ccc([C@@H]2CC(=O)c3c(O)cc(O[C@@H]4O[C@H](CO[C@@H]5O[C@@H](C)[C@H](O)[C@@H](O)[C@@H]5O)[C@@H](O)[C@H](O)[C@@H]4O)cc3O2)cc1O | 37221 | cytotoxic, single point
CO[C@@H]1[C@H](N(C)C(=O)c2ccccc2)C[C@H]2O[C@]1(C)n1c3ccccc3c3c4c(c5c6ccccc6n2c5c31)C(=O)NC4 | 1049 | cytotoxic, full curve
CN(C)C(=O)C(CCN1CCC(O)(c2ccc(Cl)cc2)CC1)(c1ccccc1)c1ccccc1 | 16788 | cytotoxic, single point
Cc1cc2cc3c(C)cc(=O)oc3c(C)c2o1 | 37221 | cytotoxic, partial curve, poor fit
O=C(NCC1CCCCN1)c1cc(OCC(F)(F)F)ccc1OCC(F)(F)F (stereo not drawn) | 37221 | cytotoxic, single point
Nc1ncn([C@@H]2O[C@H](CO)[C@@H](O)[C@@H]2O)c(=O)n1 | 16626 | cytotoxic, partial curve
COc1cc2nccc(Oc3ccc(NC(=O)Nc4cc(C)on4)c(Cl)c3)c2cc1OC | 18654 | cytotoxic, single point
O=C(Nc1cc2cc[nH]c2cn1)c1ccccc1 | 18654 | cytotoxic, partial curve
Nc1nc(=S)c2[nH]cnc2[nH]1 | 33498 | cytotoxic, single point
O=C(O)c1c(Cl)c(Cl)c(Cl)c(Cl)c1-c1c2cc(I)c(=O)c(I)c-2oc2c(I)c(O)c(I)cc12 | 5899 | cytotoxic, full curve
CC(C)=CC[C@@H](O)C1=CC(=O)c2c(O)ccc(O)c2C1=O | 37221 | cytotoxic, single point
CC(C)n1c(C=C[C@H](O)C[C@H](O)CC(=O)O)c(-c2ccc(F)cc2)c2ccccc21 | 2957 | cytotoxic, partial curve, poor fit
Nc1nc(N)c2nc(-c3cccc(O)c3)c(-c3cccc(O)c3)nc2n1 | 1663 | cytotoxic, full curve
CN(C(Cc1ccc(OS(=O)(=O)c2cccc3cnccc23)cc1)C(=O)N1CCN(c2ccccc2)CC1)S(=O)(=O)c1cccc2cnccc12 (stereo not drawn) | 2093 | cytotoxic, full curve
CC(C)n1nc(-c2cc3cc(O)ccc3[nH]2)c2c(N)ncnc21 | 595.7 | cytotoxic, full curve
CN(C)S(=O)(=O)c1ccc2c(c1)C(=Cc1cc3c([nH]1)CCCC3)C(=O)N2 | 18654 | cytotoxic, single point
CCN(CC)CCOc1ccc(Nc2ncc3cc(-c4c(Cl)cccc4Cl)c(=O)n(C)c3n2)cc1 | 8333 | cytotoxic, partial curve, poor fit
O=c1c(-c2ccccc2)c1-c1ccccc1 | 33498 | cytotoxic, partial curve, poor fit
NC(=O)c1ccc(I)c([N+](=O)[O-])c1 | 16626 | cytotoxic, partial curve, poor fit
COc1ccc2nc(S(=O)Cc3ncc(C)c(OC)c3C)[nH]c2c1 (stereo not drawn) | 18654 | cytotoxic, single point
Cc1c(C(=O)O)c(O)cc2c1C(=O)c1c(O)c([C@@H]3O[C@H](CO)[C@@H](O)[C@H](O)[C@H]3O)c(O)c(O)c1C2=O | 14963 | cytotoxic, partial curve, poor fit
COc1ccc(-c2cc3c(C)nc(N)nc3n(C3CCC(OCCO)CC3)c2=O)cn1 (stereo not drawn) | 186.5 | cytotoxic, full curve
COc1cc([C@@H]2c3cc4c(cc3[C@H](O)[C@H]3COC(=O)[C@H]23)OCO4)cc(OC)c1OC | 1.3 | cytotoxic, full curve, poor fit
CC(C)N(CCCNC(=O)Nc1ccc(C(C)(C)C)cc1)C[C@H]1O[C@@H](n2cc(Br)c3c(N)ncnc32)[C@H](O)[C@H]1O | 23484 | cytotoxic, single point